# Measurements as given in the supplement of paper PMC8728848.
# The list shows a part of the results.
# B1: PX9916F-bfa-443-24-443 (Bacteroides fragilis) (protein)
# chain: DIRPVGSVIPQTAEEYRALLARAYLNVPNDRGLACLRSDEMLVNDNEYDRNSYGDIERWNDVSPFPGTSQFTWSNFYNVLFIANQVIESQKEITEGTPEVVNQLVGEAHLLRAYLHFVLVNLHGQPYTKSGALNSKSIPLKLDTDLEKTLGRNTVEEVYTSILSDIEHARELINKEKWETVFSYRFNVLSVDALQSRVSLYMGAWPKCLESAEAVLAKKSVLVDMNETPLALPNHFESVESITALEQVMGSSVNNAVWVPATFLALYQEGDKRLAAYFAAPDENGNRKSSKGGKREFSCTFRVGELYLNAAEAAANMDKLPHARMRLLELMRKRYTPEAYDKKENAVNVMDKNALISEILNERARELAFEGHRWFDLRRTTRPRMVKVLQGKTYILEQDDPRYTIPIPRDAIAANPGLAN
# Key:
# Experiment in all cases: glycan array binding signal (z-score within array); higher = stronger binding
# Conditions in all cases: glycan notation: IUPAC condensed, linker removed
# [1] = target: Fuc(a1-2)Gal6S(b1-3)GlcNAc6S
# Outline: (§1)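 The binding signal is a Z-score computed within each array. Data were drawn from 3228 arrays in the Consortium for Functional Glycomics database, restricted to those with a known protein sequence. Scores were averaged over arrays of the same protein sequence at different concentrations or buffers, and over linkers, and negative values can be taken as non-binding.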
# Fuc(a1-2)Gal6S(b1-4)Glc = target: Fuc(a1-2)Gal6S(b1-4)Glc
# Outline: as §1
# [2] = target: Fuc(a1-2)Gal6S(b1-4)Glc6S
# Outline: as §1
# Fuc(a1-2)[Gal(a1-3)]Gal = target: Fuc(a1-2)[Gal(a1-3)]Gal
# Outline: as §1
# [3] = target: Fuc(a1-2)[Gal(a1-3)]Gal(b1-3)GalNAc
# Outline: as §1
# [4] = target: Fuc(a1-2)[Gal(a1-3)]Gal(b1-3)GalNAc(b1-3)Gal(a1-4)Gal(b1-4)Glc
# Outline: as §1
# [5] = target: Fuc(a1-2)[Gal(a1-3)]Gal(b1-3)GlcNAc
# Outline: as §1
# [6] = target: Fuc(a1-2)[Gal(a1-3)]Gal(b1-3)GlcNAc(b1-2)Man(a1-3)[Fuc(a1-2)[Gal(a1-3)]Gal(b1-3)GlcNAc(b1-2)Man(a1-6)]Man(b1-4)GlcNAc(b1-4)GlcNAc
# Outline: as §1
# [7] = target: Fuc(a1-2)[Gal(a1-3)]Gal(b1-3)GlcNAc(b1-2)Man(a1-3)[Fuc(a1-2)[Gal(a1-3)]Gal(b1-3)GlcNAc(b1-2)Man(a1-6)]Man(b1-4)GlcNAc(b1-4)[Fuc(a1-6)]GlcNAc
# Outline: as §1
# [8] = target: Fuc(a1-2)[Gal(a1-3)]Gal(b1-3)GlcNAc(b1-3)GalNAc
# Outline: as §1
# [9] = target: Fuc(a1-2)[Gal(a1-3)]Gal(b1-3)GlcNAc(b1-6)GalNAc
# Outline: as §1
# [10] = target: Fuc(a1-2)[Gal(a1-3)]Gal(b1-4)Glc
# Outline: as §1
# [11] = target: Fuc(a1-2)[Gal(a1-3)]Gal(b1-4)GlcNAc
# Outline: as §1
# [12] = target: Fuc(a1-2)[Gal(a1-3)]Gal(b1-4)GlcNAc(b1-2)Man
# Outline: as §1
# [13] = target: Fuc(a1-2)[Gal(a1-3)]Gal(b1-4)GlcNAc(b1-2)Man(a1-3)[Fuc(a1-2)[Gal(a1-3)]Gal(b1-4)GlcNAc(b1-2)Man(a1-6)]Man(b1-4)GlcNAc(b1-4)GlcNAc
# Outline: as §1
# [14] = target: Fuc(a1-2)[Gal(a1-3)]Gal(b1-4)GlcNAc(b1-2)Man(a1-3)[Fuc(a1-2)[Gal(a1-3)]Gal(b1-4)GlcNAc(b1-2)Man(a1-6)]Man(b1-4)GlcNAc(b1-4)[Fuc(a1-6)]GlcNAc
# Outline: as §1
# [15] = target: Fuc(a1-2)[Gal(a1-3)]Gal(b1-4)GlcNAc(b1-3)GalNAc
# Outline: as §1
# [16] = target: Fuc(a1-2)[Gal(a1-3)]Gal(b1-4)GlcNAc(b1-3)[Fuc(a1-2)[Gal(a1-3)]Gal(b1-4)GlcNAc(b1-6)]GalNAc
# Outline: as §1
# [17] = target: Fuc(a1-2)[Gal(a1-3)]Gal(b1-4)GlcNAc(b1-6)GalNAc
# Outline: as §1
# [18] = target: Fuc(a1-2)[Gal(a1-3)]Gal(b1-4)[Fuc(a1-3)]Glc
# Outline: as §1
# [19] = target: Fuc(a1-2)[Gal(a1-3)]Gal(b1-4)[Fuc(a1-3)]GlcNAc
# Outline: as §1
# [20] = target: Fuc(a1-2)[Gal(a1-3)]Gal(b1-4)[Fuc(a1-3)]GlcNAc(b1-3)GalNAc
# Outline: as §1
# [21] = target: Fuc(a1-2)[Gal(a1-4)]Gal(b1-4)GlcNAc
# Outline: as §1
# [22] = target: Fuc(a1-2)[GalNAc(a1-3)]Gal
# Outline: as §1
# [23] = target: Fuc(a1-2)[GalNAc(a1-3)]Gal(b1-3)GalNAc(a1-3)[Fuc(a1-2)]Gal(b1-4)GlcNAc
# Outline: as §1
# [24] = target: Fuc(a1-2)[GalNAc(a1-3)]Gal(b1-3)GalNAc(b1-3)Gal(a1-4)Gal(b1-4)Glc
# Outline: as §1
# [25] = target: Fuc(a1-2)[GalNAc(a1-3)]Gal(b1-3)GlcNAc
# Outline: as §1
# [26] = target: Fuc(a1-2)[GalNAc(a1-3)]Gal(b1-3)GlcNAc(b1-2)Man(a1-3)[Fuc(a1-2)[GalNAc(a1-3)]Gal(b1-3)GlcNAc(b1-2)Man(a1-6)]Man(b1-4)GlcNAc(b1-4)GlcNAc
# Outline: as §1
# [27] = target: Fuc(a1-2)[GalNAc(a1-3)]Gal(b1-3)GlcNAc(b1-2)Man(a1-3)[Fuc(a1-2)[GalNAc(a1-3)]Gal(b1-3)GlcNAc(b1-2)Man(a1-6)]Man(b1-4)GlcNAc(b1-4)[Fuc(a1-6)]GlcNAc
# Outline: as §1
# [28] = target: Fuc(a1-2)[GalNAc(a1-3)]Gal(b1-3)GlcNAc(b1-3)GalNAc
# Outline: as §1
# [29] = target: Fuc(a1-2)[GalNAc(a1-3)]Gal(b1-3)GlcNAc(b1-6)GalNAc
# Outline: as §1
# [30] = target: Fuc(a1-2)[GalNAc(a1-3)]Gal(b1-4)Glc
# Outline: as §1
# [31] = target: Fuc(a1-2)[GalNAc(a1-3)]Gal(b1-4)GlcNAc
# Outline: as §1
# [32] = target: Fuc(a1-2)[GalNAc(a1-3)]Gal(b1-4)GlcNAc(b1-2)Man
# Outline: as §1
# [33] = target: Fuc(a1-2)[GalNAc(a1-3)]Gal(b1-4)GlcNAc(b1-2)Man(a1-3)[Fuc(a1-2)[GalNAc(a1-3)]Gal(b1-4)GlcNAc(b1-2)Man(a1-6)]Man(b1-4)GlcNAc(b1-4)GlcNAc
# Outline: as §1
# [34] = target: Fuc(a1-2)[GalNAc(a1-3)]Gal(b1-4)GlcNAc(b1-2)Man(a1-3)[Fuc(a1-2)[GalNAc(a1-3)]Gal(b1-4)GlcNAc(b1-2)Man(a1-6)]Man(b1-4)GlcNAc(b1-4)[Fuc(a1-6)]GlcNAc
# Outline: as §1
# [35] = target: Fuc(a1-2)[GalNAc(a1-3)]Gal(b1-4)GlcNAc(b1-3)Gal(b1-4)GlcNAc
# Outline: as §1
# [36] = target: Fuc(a1-2)[GalNAc(a1-3)]Gal(b1-4)GlcNAc(b1-3)Gal(b1-4)GlcNAc(b1-3)Gal(b1-4)GlcNAc
# Outline: as §1
# [37] = target: Fuc(a1-2)[GalNAc(a1-3)]Gal(b1-4)GlcNAc(b1-3)GalNAc
# Outline: as §1
# [38] = target: Fuc(a1-2)[GalNAc(a1-3)]Gal(b1-4)GlcNAc(b1-3)[Fuc(a1-2)[GalNAc(a1-3)]Gal(b1-4)GlcNAc(b1-6)]GalNAc
# Outline: as §1
# [39] = target: Fuc(a1-2)[GalNAc(a1-3)]Gal(b1-4)GlcNAc(b1-6)GalNAc
# Outline: as §1
# [40] = target: Fuc(a1-2)[GalNAc(a1-3)]Gal(b1-4)[Fuc(a1-3)]GlcNAc
# Outline: as §1
# [41] = target: Fuc(a1-2)[GalNAc(a1-3)]Gal(b1-4)[Fuc(a1-3)]GlcNAc(b1-3)GalNAc
# Outline: as §1
# [42] = target: Fuc(a1-2)[GalNAc(a1-4)]Gal(b1-4)GlcNAc
# Outline: as §1
# [43] = target: Fuc(a1-2)[GalNAc(b1-3)]Gal
# Outline: as §1
binder,measurement,setting,value
B1,glycan array binding signal (z-score),[1],-0.692
same,glycan array binding signal (z-score),Fuc(a1-2)Gal6S(b1-4)Glc,0.194
same,glycan array binding signal (z-score),[2],-0.448
same,glycan array binding signal (z-score),Fuc(a1-2)[Gal(a1-3)]Gal,0.165
same,glycan array binding signal (z-score),[3],0.286
same,glycan array binding signal (z-score),[4],-0.206
same,glycan array binding signal (z-score),[5],0.481
same,glycan array binding signal (z-score),[6],0.448
same,glycan array binding signal (z-score),[7],8.18
same,glycan array binding signal (z-score),[8],-0.857
same,glycan array binding signal (z-score),[9],0.234
same,glycan array binding signal (z-score),[10],-0.669
same,glycan array binding signal (z-score),[11],0.842
same,glycan array binding signal (z-score),[12],-0.317
same,glycan array binding signal (z-score),[13],8.54
same,glycan array binding signal (z-score),[14],2.44
same,glycan array binding signal (z-score),[15],-0.737
same,glycan array binding signal (z-score),[16],-0.835
same,glycan array binding signal (z-score),[17],0.541
same,glycan array binding signal (z-score),[18],-1.14
same,glycan array binding signal (z-score),[19],-0.897
same,glycan array binding signal (z-score),[20],-0.036
same,glycan array binding signal (z-score),[21],0.788
same,glycan array binding signal (z-score),[22],0.291
same,glycan array binding signal (z-score),[23],-0.268
same,glycan array binding signal (z-score),[24],0.877
same,glycan array binding signal (z-score),[25],0.646
same,glycan array binding signal (z-score),[26],1.39
same,glycan array binding signal (z-score),[27],-1.27
same,glycan array binding signal (z-score),[28],-0.388
same,glycan array binding signal (z-score),[29],0.212
same,glycan array binding signal (z-score),[30],-0.636
same,glycan array binding signal (z-score),[31],-0.867
same,glycan array binding signal (z-score),[32],-0.014
same,glycan array binding signal (z-score),[33],-0.221
same,glycan array binding signal (z-score),[34],-0.302
same,glycan array binding signal (z-score),[35],-0.616
same,glycan array binding signal (z-score),[36],0.839
same,glycan array binding signal (z-score),[37],-0.576
same,glycan array binding signal (z-score),[38],-0.542
same,glycan array binding signal (z-score),[39],1.03
same,glycan array binding signal (z-score),[40],1.85
same,glycan array binding signal (z-score),[41],2.91
same,glycan array binding signal (z-score),[42],-1.03
same,glycan array binding signal (z-score),[43],-0.431

# 4 entries from above in another layout.
binder	measurement	setting	value
B1	glycan array binding signal (z-score)	Fuc(a1-2)Gal6S(b1-4)Glc	0.194
same	glycan array binding signal (z-score)	[2]	-0.448
same	glycan array binding signal (z-score)	Fuc(a1-2)[Gal(a1-3)]Gal	0.165
same	glycan array binding signal (z-score)	[3]	0.286
